Experimental data published in patent publication US20030133987A1, “Drug nanoparticles from template emulsions” (priority 2002, published 2003).

Assay: In-vitro dissolution, standard protocol according to USP 24 monographs
Assay type: physicochemical
Conditions: HPLC or UV/VIS detection, control (drug as received) in parenthesis
Procedure: The dissolution progress was measured after 5, 10, 15, and 60 minutes using either High Pressure Liquid Chromatography (HPLC) or UV/VIS detection as the analytical tools. […] For comparison, the corresponding data for the controls are given in parenthesis.

- percent of dissolved sample, 5 min (5 min): 7%
- percent of dissolved sample, 10 min (10 min): 11%
- percent of dissolved sample, 15 min (15 min): 15%
- percent of dissolved sample, 60 min (60 min): (37%)
SMILES: COc1ccc2cc([C@H](C)C(=O)O)ccc2c1 [Naproxen, naproxen]
